These are yes or no findings as the source states them, for the method shown. Some results given as binding are weak or reduced against the parent protein; the word gives no strength.

Sequences and labels used below:
B1: W3452-2.683.2-z27-IgG1L (antibody, V domains shown)
VH: EVQLVESGGGLVQPGRSLRLSCAASGFTFSTYGMAWVRQAPGKGLEWVSSISTSGGSTYYRDSVQGRFTISRDNAKSSLYLQMNSLRAEDTATYYCTTKGGRTYRLAYWGQGTLVTVSS
VL: SYELMQPPSVSVSPGQTARITCSGIELSNKYAHWYQQKPGQAPVEVMYKDSERPSGIPERFSGSRSGTTVTLTISGVQAEDEADYYCLSTNSDDDLPVFGGGTKLTVL
B2: W3452-2.683.2-z27-IgG4PE,L (antibody, V domains shown)
VH: B1 VH
VL: B1 VL
B3: W3452-1.164.16-z11-IgG1K (antibody, V domains shown)
VH: QVQLQESGPGLVKPSETLSLTCTVSGFSLTNYHVYWIRQPPGKGLEWIGVMWNHGDTSYNSPLKSRVTISVDTSKSQFSLKLSSVTAADTAVYYCARGGYVPDYWGQGTMVTVSS
VL: DIVMTQSPLSLPVTPGEPASISCRSSQSLVHSNAKTYLHWYLQKPGQSPQLLIYRVSNRFSGVPDRFSGSGSGTDFTLKISRVEAEDVGVYYCLQTTHFPYTFGQGTKLEIK

The target in this experiment is 食蟹猴CD47 (cynomolgus monkey CD47) (cynomolgus monkey). The experiment is described as follows: FACS on cynomolgus PBMC.
Turning to B1, the binding entry is “binds”.

Consider B2, for which the binding result is reported as “binds”.

Turning to B3, the binding result is listed as “binds”.

The values above are taken from patent CN110305214A.
